In patent US10208049B2, “Compounds and methods of treating ocular disorders” (Case Western Reserve University, priority 2009, dated 2019):
Some results were stated once for a whole list of compounds, not compound by compound. Peptide text beside a SMILES is read from it.

System: RPE cells
Assay: Viability of RPE cells treated with retinal
Format: cell-based

Compound | improvement of viability of RPE cells treated with retinal compared to untreated cells
CNC(C)C1CC[C@@H](N)[C@@H](OC2C(N)CC(N)[C@H](OC3OC[C@](C)(O)[C@H](NC)[C@H]3O)[C@H]2O)O1 (stereo partly drawn) [(3R,4R,5R)-2-[(1S,2S)-4,6-diamino-3-[(2R,3R)-3-amino-6-[1-(methylamino)ethyl]tetrahydropyran-2-yl]oxy-2-hydroxy-cyclohexoxy]-5-methyl-4-(methylamino)tetrahydropyran-3,5-diol] | at least 15%
COc1c(N2CCCC(C(C)(C)N)C2)ccc2c(=O)c(C(=O)O)cn(C3CC3)c12 (stereo not shown) [7-[3-(1-amino-1-methyl-ethyl)-1-piperidyl]-1-cyclopropyl-8-methoxy-4-oxo-quinoline-3-carboxylic acid] | at least 15%
CCN(CC)CC(O)CSc1ccc(N)cc1 (stereo not shown) [1-(4-aminophenyl)sulfanyl-3-(diethylamino)propan-2-ol] | at least 15%
COc1ccc(-c2cc(C3CC3)c(C#N)c(N)c2C#N)cc1 [2-amino-4-cyclopropyl-6-(4-methoxyphenyl)benzene-1,3-dicarbonitrile] | at least 15%
N[C@H](Cc1ccccc1)C(=O)N1CCC(Cn2cncn2)(c2ccccc2)CC1 [(2R)-2-amino-3-phenyl-1-[4-phenyl-4-(1,2,4-triazol-1-ylmethyl)-1-piperidyl]propan-1-one] | at least 15%
Nc1ccc(Oc2ccc3ccccc3c2)c(Cl)c1 [3-chloro-4-(2-naphthyloxy)aniline] | at least 15%
NCc1ccc(CN2CCCNC2=O)cc1 [1-[[4-(aminomethyl)phenyl]methyl]hexahydropyrimidin-2-one] | at least 15%
C/C(=N\NC(=O)c1ccccc1N)c1ccccc1O [2-amino-N-[(E)-1-(2-hydroxyphenyl)ethylideneamino]benzamide] | at least 15%
Nc1cc(Cc2ccccc2)ccc1O [2-amino-4-benzyl-phenol] | at least 15%
Cc1cc(N)c(Br)cc1C [2-bromo-4,5-dimethyl-aniline] | at least 15%
Nc1ccc2nc(SCC(=O)Nc3ccccc3F)sc2c1 [2-[(6-amino-1,3-benzothiazol-2-yl)sulfanyl]-N-(2-fluorophenyl)acetamide] | at least 15%
NCCN(Cc1ccccn1)C(=O)c1cncc(-c2ccc(F)cc2)c1 [N-(2-aminoethyl)-5-(4-fluorophenyl)-N-(2-pyridylmethyl)pyridine-3-carboxamide] | at least 15%
Nc1ccc2nsnc2c1N [2,1,3-benzothiadiazole-4,5-diamine] | at least 15%
CC(N)C(=O)OC(C)(C)C (stereo not shown) [tert-butyl 2-aminopropanoate] | at least 15%
CC(=O)Nc1nc2c(C)cc(N)cc2s1 [N-(6-amino-4-methyl-1,3-benzothiazol-2-yl)acetamide] | at least 15%
COc1c(N)cc2c(C)c(C(=O)N3CCOCC3)oc2c1OC [(5-amino-6,7-dimethoxy-3-methyl-benzofuran-2-yl)-morpholino-methanone] | at least 15%
Cc1ccc(C(c2ccc(C)c(N)c2)(C(F)(F)F)C(F)(F)F)cc1N [5-[1-(3-amino-4-methyl-phenyl)-2,2,2-trifluoro-1-(trifluoromethyl)ethyl]-2-methyl-aniline] | at least 15%
C/C(=N\NC(=O)c1ccco1)c1ccc(N)cc1 [N-[(E)-1-(4-aminophenyl)ethylideneamino]furan-2-carboxamide] | at least 15%
Nc1ccc(Cl)cc1C(=O)c1ccccc1 [(2-amino-5-chloro-phenyl)-phenyl-methanone] | at least 15%
Nc1cc2nc3ccccc3nc2cc1O [3-aminophenazin-2-ol] | at least 15%
Nc1ccc2oc(-c3ccc4ccccc4c3)nc2c1 [2-(2-naphthyl)-1,3-benzoxazol-5-amine] | at least 15%
Nc1ccc(C(=O)NNC(=O)c2ccc(Cl)cc2)cc1 [4-amino-N′-(4-chlorobenzoyl)benzohydrazide] | at least 15%
CC(C)(C)C(=O)Nc1ccc(N)cc1 [N-(4-aminophenyl)-2,2-dimethyl-propanamide] | at least 15%

Compound | improvement of viability of RPE cells treated with retinal compared to untreated cells
NCC(=O)N1CCOCCOCCN(C(=O)CN)CCOCCOCC1 [2-amino-1-[16-(2-aminoacetyl)-1,4,10,13-tetraoxa-7,16-diazacyclooctadec-7-yl]ethanone] | at least 15%
NCCNC1CCCCCCCCCCC1 [N′-cyclododecylethane-1,2-diamine] | at least 15%
COc1ccc(NC(=O)OCc2cc(N)cc(N)c2)c(OC)c1 [(3,5-diaminophenyl)methyl N-(2,4-dimethoxyphenyl)carbamate] | at least 15%
NCC(=O)c1cccc(Br)c1 [2-amino-1-(3-bromophenyl)ethanone] | at least 15%
NC(Cc1ccccc1O)C(=O)O (stereo not shown) [2-amino-3-(2-hydroxyphenyl)propanoic acid] | at least 15%
Nc1ccc(C(=O)Nc2cccc(C(=O)O)c2)c(C(=O)O)c1 [5-amino-2-[(3-carboxyphenyl)carbamoyl]benzoic acid] | at least 15%
N[C@@H](CCC(=O)O)C(=O)NCCCC[C@@H](NC(=O)c1cccs1)C(=O)NCCc1cccs1 [(4S)-4-amino-5-oxo-5-[[(5R)-6-oxo-6-[2-(2-thienyl)ethylamino]-5-(thiophene-2-carbonylamino)hexyl]amino]pentanoic acid] | at least 15%
CCCNC(=O)[C@@H](CCCCNC(=O)[C@@H](N)CCC(=O)O)NC(C)=O [(4S)-5-[[(5R)-5-acetamido-6-oxo-6-(propylamino)hexyl]amino]-4-amino-5-oxo-pentanoic acid] | at least 15%
COC(=O)C1CC[C@]2(N)[C@@H]3CC[C@@H]4C[C@@H](O[C@@H]5CC[C@@H](O)C(C)O5)CC[C@]4(C)[C@H]3CC[C@]12C (stereo partly drawn) [methyl (3S,5R,8R,9S,10S,13R,14S)-14-amino-3-[(2S,5R)-5-hydroxy-6-methyl-tetrahydropyran-2-yl]oxy-10,13-dimethyl-1,2,3,4,5,6,7,8,9,11,12,15,16,17-tetradecahydrocyclopenta[a]phenanthrene-17-carboxylate] | at least 15%
Cc1cc(C)c(N)c([N+](=O)[O-])c1 [2,4-dimethyl-6-nitro-aniline] | at least 15%
Nc1cc(O)c(NS(=O)(=O)c2ccccc2)cc1Cl [N-(4-amino-5-chloro-2-hydroxy-phenyl)benzenesulfonamide] | at least 15%
CN(C)S(=O)(=O)c1cc(N)ccc1O [5-amino-2-hydroxy-N,N-dimethyl-benzenesulfonamide] | at least 15%
CC(CC(=O)NCc1ccccc1N)NC(=O)c1cc(-c2ccccc2)nc2ccccc12 (stereo not shown) [N-[3-[(2-aminophenyl)methylamino]-1-methyl-3-oxo-propyl]-2-phenyl-quinoline-4-carboxamide] | at least 15%
Nc1ccc(C(=O)Nc2ccc(-c3nc4ccc(NC(=O)c5ccc(N)cc5)c(Cl)c4[nH]3)cc2)cc1 [4-amino-N-[4-[6-[(4-aminobenzoyl)amino]-7-chloro-1H-benzimidazol-2-yl]phenyl]benzamide] | at least 15%
N#CC[C@H]1CC([C@H](N)Cc2ccc(F)cc2)OC[C@H]1c1ccc2ccccc2c1 (stereo partly drawn) [2-[(4S,5R)-2-[(1R)-1-amino-2-(4-fluorophenyl)ethyl]-5-(2-naphthyl)tetrahydropyran-4-yl]acetonitrile] | at least 15%
COc1ccc(Nc2ccc(N)cc2)cc1 [N1-(4-methoxyphenyl)benzene-1,4-diamine] | at least 15%
COc1c(N2CCCC(CN)C2)ccc2c(=O)c(C(=O)O)cn(C3CC3)c12 (stereo not shown) [7-[3-(aminomethyl)-1-piperidyl]-1-cyclopropyl-8-methoxy-4-oxo-quinoline-3-carboxylic acid] | at least 15%
COc1cc2nc(C)sc2cc1N [5-methoxy-2-methyl-1,3-benzothiazol-6-amine] | at least 15%
CC(C)CC(N)C(=O)NC(CC(C)C)C(=O)NC(C(=O)NC(Cc1ccccc1)C(N)=O)C(C)C (stereo not shown) [2-amino-N-[1-[[1-[(2-amino-1-benzyl-2-oxo-ethyl)carbamoyl]-2-methyl-propyl]carbamoyl]-3-methyl-butyl]-4-methyl-pentanamide] (H-LLVF-NH2; configuration not given here) | at least 15%
Nc1cc(N2CCNCC2)ccc1[N+](=O)[O-] [2-nitro-5-piperazin-1-yl-aniline] | at least 15%
NCC(=O)Nc1ccc2ccccc2c1 [2-amino-N-(2-naphthyl)acetamide] | at least 15%
Nc1ccc(Cc2ccc(N)c(N)c2)cc1N [4-[(3,4-diaminophenyl)methyl]benzene-1,2-diamine] | at least 15%
NCC1CCS(=O)(=O)C1 (stereo not shown) [(1,1-dioxothiolan-3-yl)methanamine] | at least 15%
